# Experimental data as given in publication doi:10.1101/2025.03.24.645050.
# The chains behind the UniProt entries cited, without tags or fusion partners. Where a name states a change or a piece, a line headed by the entry shows the natural chain unless it says otherwise.
# UniProt Q96SW2: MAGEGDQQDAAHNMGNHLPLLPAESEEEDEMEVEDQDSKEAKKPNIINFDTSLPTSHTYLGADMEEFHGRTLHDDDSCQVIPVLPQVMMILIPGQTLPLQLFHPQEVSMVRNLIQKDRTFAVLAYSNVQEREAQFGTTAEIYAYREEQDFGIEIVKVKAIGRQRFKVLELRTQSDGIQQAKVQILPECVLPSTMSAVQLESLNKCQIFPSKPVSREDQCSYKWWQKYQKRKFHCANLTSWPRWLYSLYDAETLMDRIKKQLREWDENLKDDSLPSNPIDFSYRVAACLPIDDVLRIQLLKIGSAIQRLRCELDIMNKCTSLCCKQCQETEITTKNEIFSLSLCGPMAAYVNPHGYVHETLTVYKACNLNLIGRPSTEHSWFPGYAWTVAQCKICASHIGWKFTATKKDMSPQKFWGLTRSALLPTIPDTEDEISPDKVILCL
# UniProt Q16531: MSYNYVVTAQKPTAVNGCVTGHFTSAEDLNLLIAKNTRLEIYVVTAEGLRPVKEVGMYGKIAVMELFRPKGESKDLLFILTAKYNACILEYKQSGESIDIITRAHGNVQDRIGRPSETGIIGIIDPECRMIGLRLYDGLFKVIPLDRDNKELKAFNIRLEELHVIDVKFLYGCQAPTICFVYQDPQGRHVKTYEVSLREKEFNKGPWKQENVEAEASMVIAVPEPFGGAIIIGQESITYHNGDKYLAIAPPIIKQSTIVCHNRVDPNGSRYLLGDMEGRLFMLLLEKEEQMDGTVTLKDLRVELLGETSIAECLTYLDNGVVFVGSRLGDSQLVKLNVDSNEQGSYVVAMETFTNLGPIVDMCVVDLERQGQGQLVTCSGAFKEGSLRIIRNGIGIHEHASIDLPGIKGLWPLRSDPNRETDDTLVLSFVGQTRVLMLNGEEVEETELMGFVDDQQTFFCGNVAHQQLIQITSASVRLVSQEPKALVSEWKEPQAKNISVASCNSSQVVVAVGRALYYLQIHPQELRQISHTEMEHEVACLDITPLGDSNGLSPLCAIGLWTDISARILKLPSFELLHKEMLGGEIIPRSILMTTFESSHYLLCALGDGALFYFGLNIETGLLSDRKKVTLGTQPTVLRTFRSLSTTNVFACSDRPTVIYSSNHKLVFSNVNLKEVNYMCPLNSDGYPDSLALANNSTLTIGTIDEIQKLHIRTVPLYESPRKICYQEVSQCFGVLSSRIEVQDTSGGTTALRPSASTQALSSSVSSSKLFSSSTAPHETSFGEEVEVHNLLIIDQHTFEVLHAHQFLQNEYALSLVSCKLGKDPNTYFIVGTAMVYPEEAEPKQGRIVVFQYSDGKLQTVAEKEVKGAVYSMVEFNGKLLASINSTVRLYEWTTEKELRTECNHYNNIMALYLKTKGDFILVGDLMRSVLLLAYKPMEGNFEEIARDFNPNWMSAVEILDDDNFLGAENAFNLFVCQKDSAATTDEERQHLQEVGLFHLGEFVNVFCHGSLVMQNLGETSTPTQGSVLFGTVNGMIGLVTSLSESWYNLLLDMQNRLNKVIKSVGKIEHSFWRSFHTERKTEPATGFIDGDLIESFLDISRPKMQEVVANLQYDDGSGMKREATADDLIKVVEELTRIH
# UniProt P15104: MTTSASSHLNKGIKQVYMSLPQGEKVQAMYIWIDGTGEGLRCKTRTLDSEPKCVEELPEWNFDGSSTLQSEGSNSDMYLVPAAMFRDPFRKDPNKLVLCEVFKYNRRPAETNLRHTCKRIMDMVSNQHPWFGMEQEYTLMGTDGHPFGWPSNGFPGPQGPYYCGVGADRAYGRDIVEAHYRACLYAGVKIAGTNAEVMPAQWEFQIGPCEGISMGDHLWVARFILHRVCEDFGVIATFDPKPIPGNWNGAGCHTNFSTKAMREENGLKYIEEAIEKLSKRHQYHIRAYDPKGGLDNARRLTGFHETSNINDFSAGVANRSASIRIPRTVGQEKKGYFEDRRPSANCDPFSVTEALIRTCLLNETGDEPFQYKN
# Results are given in words; binding and its absence hold for the method and conditions named. Some entries that bind do so weakly or less than the wild type.
# Tests used:
# [1] = target: human CRBN-DDB1 (complex crystallised with PFQYKcN) (human) (UniProt Q96SW2+Q16531); test: crystal structure
# His6-CRBN/DDB1 complex = His6-CRBN/DDB1 complex (UniProt Q96SW2); test: AlphaScreen or HTRF
Binder,binding [1],binding (His6-CRBN/DDB1 complex)
PFQYKN (C-terminal asparagine as cyclic imide (cN)) [synthetic GLUL C-terminal 6-mer PFQYKcN],binds,–
"PFQYKA (peptide, UniProt P15104 368-373) [GLUL 6-mer with the C-terminal N replaced by alanine, incubated with PCMT1]",–,no binding
